# Results are given in words; binding and its absence hold for the method and conditions named. In cells and extracts the contact can be indirect. A yes stands for co-enrichment or nearness to the bait. Other partners may have been found.
# B1: TGM2 (protein, UniProt Q9WVJ6 1-686)
# chain: MAEELNLERCDLEIQANGRDHHTADLCQQKLVLRRGQRFRLTLYFEGRGYEASVDRLTFGAVTGPDPSEEAGTKARFSLSDDVEEGSWSASVLDQQDNVLSLQLCTPANAPVGQYRLSLETSTGYQGSSFMLGHFILLFNAWCPADDVYLDSEAERREYVLTQQGFIYQGSVKFIKSVPWNFGQFEDGILDACLMLLDVNPKFLKDRSRDCSRRSSPIYVGRVVSGMVNCNDDQGVLLGRWDNNYGDGISPMAWIGSVDILRRWKEHGCQQVKYGQCWVFAAVACTVLRCLGIPTRVVTNYNSAHDQNSNLLIEYFRNEYGELESNKSEMIWNFHCWVESWMTRPDLQPGYEGWQAIDPTPQEKSEGTYCCGPVSVRAIKEGDLSTKYDASFVFAEVNADVVDWIRQSDGSVLKSINNSLVVGQKISTKSVGRDDREDITYTYKYPEGSPEEREVFTRANHLNKLAEKEETGVAMRIRVGDGMSLGNDFDVFAHIGNDTSESRECRLLLCARTVSYNGVLGPECGTEDINLTLDPYSENSIPLRILYEKYSGCLTESNLIKVRGLLVEPAANSYLLAERDLYLENPEIKIRILGEPKQNRKLVAEVSLKNPLSDSLYDCVFTVEGAGLTKEQKSVEVSDPVPAGDAVKVRVDLFPTDIGLHKLVVNFQCDKLKSVKGYRNIIIGPA
# B2: HP (protein, UniProt P06866 19-347)
# chain: VELGNDATDIEDDSCPKPPEIANGYVEHLVRYRCRQFYKLQTEGDGIYTLNSEKQWVNPAAGDKLPKCEAVCGKPKHPVDQVQRIIGGSMDAKGSFPWQAKMISRHGLTTGATLISDQWLLTTAQNLFLNHSENATAKDIAPTLTLYVGKNQLVEIEKVVLHPERSVVDIGLIKLKQKVLVTEKVMPICLPSKDYVAPGRMGYVSGWGRNVNFRFTERLKYVMLPVADQEKCELHYEKSTVPEKKGAVSPVGVQPILNKHTFCAGLTKYEEDTCYGDAGSAFAVHDTEEDTWYAAGILSFDKSCAVAEYGVYVRATDLKDWVQETMAKN
# B3: RRAS2 (protein, UniProt F7ESH4 1-204)
# chain: MAAAGWRDGSGQEKYRLVVVGGGGVGKSALTIQFIQSYFVTDYDPTIEDSYTKQCVIDDRAARLDILDTAGQEEFGAMREQYMRTGEGFLLVFSVTDRGSFEEIYKFQRQILRVKDRDEFPMILIGNKADLDHQRQVTQEEGQQLARQLKVTYMEASAKIRMNVDQAFHELVRVIRKFQEQECPPSPEPTRKEKDKKGCHCVIF
# B4: YWHAQ (includes EG:22630) (protein, UniProt P68255 1-245)
# chain: MEKTELIQKAKLAEQAERYDDMATCMKAVTEQGAELSNEERNLLSVAYKNVVGGRRSAWRVISSIEQKTDTSDKKLQLIKDYREKVESELRSICTTVLELLDKYLIANATNPESKVFYLKMKGDYFRYLAEVACGDDRKQTIENSQGAYQEAFDISKKEMQPTHPIRLGLALNFSVFYYEILNNPELACTLAKTAFDEAIAELDTLNEDSYKDSTLIMQLLRDNLTLWTSDSAGEECDAAEGAEN
# B5: STAT4 (protein, UniProt Q66HB2 1-748)
# chain: MSQWNQVQQLEIKFLEQVDQFYDDNFPMEIRHLLAQWIETQDWEVASNNETMATILLQNLLIQLDEQLGRVSKEKNLLLIHNLKRIRKVLQGKFHGNPMHVAVVISNCLREERRILAAANMPIQGPLEKSLQSSSVSERQRNVEHKVAAIKNSVQMTEQDTKYLEDLQDEFDYRYKTIQTMDQGDKNSILVNQEVLTLQEMLNNLDFKRKEALSKMTQIVNETDLLMNSMLLEELQDWKKRQQIACIGGPLHNGLDQLQNCFTLLAESLFQLRQQLEKLQEQSTKMTYEGDPIPAQRVHLLERATFLIYNLFKNSFVVERQPCMPTHPQRPMVLKTLIQFTVKLRLLIKLPELNYQVKVKASIDKNVSTLSNRRFVLCGTHIKAMSSEESSNGSLSVEFRHLQPKEMKCSTGSKGNEGCHMVTEELHSITFETQICLYGLTINLETSSLPVVMISNVSQLPNAWASIIWYNVSTNDSQNLVFFNNPPSVTLGQLLEVMSWQFSSYVGRGLNSDQLNMLAEKLTVQSNYSDGHLTWAKFCKEHLPGKTFTFWTWLEAILDLIKKHILPLWIDGYIMGFVSKEKERLLLKDKMPGTFLLRFSESHLGGITFTWVDQSENGEVRFHSVEPYNKARLSALPFADILRDYKVIMAENIPENPLKYLYPDIPKDKAFGKHYSSQPCEVSRPTERGDKGYVPSVFIPISTIRSDSTEPQSPSDLLPMSPSAYAVLRENLSPTTIETAMNSPYSAE
# Target: β2-adrenergic receptor (UniProt P07550)
# Assay: affinity purification with mass spectrometry; purified Flag-β2AR in rHDL immobilised on M1 anti-Flag resin, occupied by 50 µM BI-167107 (full agonist) or 50 µM carazolol (inverse agonist); adult rat heart cytosol (10 mg/ml, 4 mM CaCl2) overnight at 4°C; eluted with FLAG peptide and EDTA; gel slices, LC-MS; proteins of the M1 resin, empty rHDL and Ni-NTA controls subtracted; hits of either or both samples; only the target purified
binder,measurement,value
B1,binding,binds
B2,binding,binds
B3,binding,binds
B4,binding,binds
B5,binding,binds
